Measured values from US7595336B2, “Isatine derivatives with neurotrophic activity” (Neurosearch A/S, priority 2002, dated 2009).
Some entries share one result that the patent states for a list of compounds.

Tested on: PC12 cells
Test: Survival of differentiated PC12 cells in serum-free medium (MTS)
Format: cell-based
Details: seen at concentrations between 5-10 μM
Procedure: In this experiment the protective effect of the compounds on the survival of the pheochromocytoma cell line PC12 deprived of other survival factors were assessed following differentiation of the cells to a neuron-like phenotype.
Cells were seeded in collagen coated 96 well plates at a cell density of 8,000/cm^2 in DMEM with 7.5% Foetal Calf Serum (FCS), 7.5% Donor Horse Serum (DHS) and 2 nM NGF and cultured for 6 days. The medium was then changed to DMEM without serum supplemented with the compound in the indicated concentrations. As a positive control, parallel wells receiving serum-free DMEM without addition of vehicle […] 3 nM NGF were included.
After 4 days of incubation, cell viability was evaluated by using MTS (3-(4,5-dimethylthiazol-2-yl)-5-(3-carboxymethoxyphenyl)-2-(4-sulfonyl)2H-tetrazolium) which is reduced by metabolically active cells. Data are expressed as % of the response seen with 3 nM NGF corrected for residual MTS reduction activity in the parallel serum-free cultures (“% of NGF control”).

O=C1Nc2ccc(-c3ccc(Cl)cc3)cc2C1=NO [Compound G-3, 5-(4-Chlorophenyl)isatin-3-oxime]
Maximal survival effects (of the effect of 3 nM NGF): 70-75%
